Measurements taken from US7795267B2, “Bicyclic piperazine compound having TGR23 antagonistic activity” (Takeda Pharmaceutical Company Limited, priority 2003, dated 2010).
Structures can show the parent of a compound that is named as a salt. Some results were stated once for a whole list of compounds, not compound by compound.

target: T1, TGR23-2 (Homo sapiens, UniProt Q6W5P4, N107I/Q344R); experiment: Measurement of antagonist activity: inhibition of TGR23 ligand-induced increase of Ca ion concentration in CHO cells expressing human TGR23-2 (FLIPR); type: cell-based; conditions: 1 nM human TGR23 ligand, Fluo 3-AM, read-out: IC50 value, compound concentration inhibiting the increase of fluorescence intensity to 50%
T1 construct: expressed in transfected cells; host or cells: CHO cells
T1 sequence (Q6W5P4 1-371 N107I/Q344R): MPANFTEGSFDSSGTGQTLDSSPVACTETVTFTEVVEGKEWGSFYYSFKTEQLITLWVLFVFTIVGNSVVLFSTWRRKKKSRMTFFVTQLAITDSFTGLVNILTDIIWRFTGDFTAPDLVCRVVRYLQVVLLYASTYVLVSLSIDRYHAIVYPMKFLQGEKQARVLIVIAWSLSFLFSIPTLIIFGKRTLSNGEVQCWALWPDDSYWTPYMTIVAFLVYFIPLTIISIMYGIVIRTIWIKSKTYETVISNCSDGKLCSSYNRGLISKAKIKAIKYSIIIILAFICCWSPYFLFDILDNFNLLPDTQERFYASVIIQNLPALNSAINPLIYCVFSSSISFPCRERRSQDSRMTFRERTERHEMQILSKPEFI

SMILES | IC50 [nM]
O=C(NCCN(C1CC1)S(=O)(=O)c1ccccc1[N+](=O)[O-])N1CCN2C(=O)OC(c3ccccc3)(c3ccccc3)C2C1 (centres unmarked) [Example 171, N-[2-[Cyclopropyl[(2-nitrophenyl)sulfonyl]amino]ethyl]-tetrahydro-3-oxo-1,1-diphenyl-3H-oxazolo[3,4-a]pyrazine-7(1H)-carboxamide] | ≤ 1000
O=C(NCCN1CCOCC1)N1CCN2C(=O)OC(c3ccccc3)(c3ccccc3)C2C1 (centres unmarked) [Example 64, Tetrahydro-N-[2-(4-morpholinyl)ethyl]-3-oxo-1,1-diphenyl-3H-oxazolo[3,4-a]pyrazine-7(1H)-carboxamide] | ≤ 1000
CN(CCN1CC=CCC1)C(=O)N1CCN2C(=O)OC(c3ccccc3)(c3ccccc3)C2C1 (centres unmarked) [Example 182, N-[2-(3,6-Dihydropyridin-1(2H)-yl)ethyl]-tetrahydro-N-methyl-3-oxo-1,1-diphenyl-3H-oxazolo[3,4-a]pyrazine-7(1H)-carboxamide] | ≤ 1000
O=C(C1CCN(CC2CC2)CC1)N1CCN2C(=O)OC(c3ccccc3)(c3ccccc3)C2C1 (centres unmarked) [Example 164, 7-[[1-(Cyclopropylmethyl)piperidin-4-yl]carbonyl]-hexahydro-1,1-diphenyl-3H-oxazolo[3,4-a]pyrazin-3-one] | ≤ 1000
O=C(Nc1cccc2[nH]cnc12)N1CCN2C(=O)OC(c3ccccc3)(c3ccccc3)C2C1 (centres unmarked) [Example 125, N-(1H-Benzimidazole-4-yl)-tetrahydro-3-oxo-1,1-diphenyl-3H-oxazolo[3,4-a]pyrazine-7(1H)-carboxamide hydrochloride] | ≤ 1000
CC(C)(CNC(=O)N1CCN2C(=O)OC(c3ccccc3)(c3ccccc3)C2C1)N1CC=CCC1 (centres unmarked) [Example 189, N-[2-(3,6-Dihydropyridin-1(2H)-yl)-2,2-dimethylethyl]-tetrahydro-3-oxo-1,1-diphenyl-3H-oxazolo[3,4-a]pyrazine-7(1H)-carboxamide] | ≤ 1000
O=C(Nc1cc2ccccc2[nH]1)N1CCN2C(=O)OC(c3ccccc3)(c3ccccc3)C2C1 (centres unmarked) [Example 113, Tetrahydro-N-(1H-indol-2-yl)-3-oxo-1,1-diphenyl-3H-oxazolo[3,4-a]pyrazine-7(1H)-carboxamide] | ≤ 1000
O=C(CNC(=O)N1CCN2C(=O)OC(c3ccccc3)(c3ccccc3)C2C1)N1CCOCC1 (centres unmarked) [Example 73, Tetrahydro-N-[2-(4-morpholinyl)-2-oxoethyl]-3-oxo-1,1-diphenyl-3H-oxazolo[3,4-a]pyrazine-7(1H)-carboxamide] | ≤ 1000
O=C(CCCCN1CCCCC1)N1CCN2C(=O)OC(c3ccccc3)(c3ccccc3)C2C1 (centres unmarked) [Example 136, Hexahydro-7-[1-oxo-5-(1-piperidinyl)pentyl]-1,1-diphenyl-3H-oxazolo[3,4-a]pyrazin-7(1H)-3-one] | ≤ 1000
O=C(Nc1ccnc2ccccc12)N1CCN2C(=O)OC(c3ccccc3)(c3ccccc3)C2C1 (centres unmarked) [Example 108, Tetrahydro-3-oxo-1,1-diphenyl-N-(4-quinolinyl)-3H-oxazolo[3,4-a]pyrazine-7(1H)-carboxamide] | ≤ 1000
O=C(NCCn1ccnc1)N1CCN2C(=O)OC(c3ccccc3)(c3ccccc3)C2C1 (centres unmarked) [Example 75, Tetrahydro-N-[2-(1H-imidazol-1-yl)ethyl]-3-oxo-1,1-diphenyl-3H-oxazolo[3,4-a]pyrazine-7(1H)-carboxamide] | ≤ 1000
O=C(NCCN1CCc2ccccc2C1)N1CCN2C(=O)OC(c3ccccc3)(c3ccccc3)C2C1 (centres unmarked) [Example 87, N-[2-(3,4-Dihydroisoquinolin-2(1H)-yl)ethyl]-tetrahydro-3-oxo-1,1-diphenyl-3H-oxazolo[3,4-a]pyrazine-7(1H)-carboxamide] | ≤ 1000
CC(C)N1CCC(NC(=O)N2CCN3C(=O)OC(c4ccccc4)(c4ccccc4)C3C2)CC1 (centres unmarked) [Example 146, Tetrahydro-N-[1-(1-methylethyl)-4-piperidinyl]-3-oxo-1,1-diphenyl-3H-oxazolo[3,4-a]pyrazine-7(1H)-carboxamide] | ≤ 1000
O=C(Nc1ccc2cc[nH]c2c1)N1CCN2C(=O)OC(c3ccccc3)(c3ccccc3)C2C1 (centres unmarked) [Example 116, Tetrahydro-N-(1H-indol-6-yl)-3-oxo-1,1-diphenyl-3H-oxazolo[3,4-a]pyrazine-7(1H)-carboxamide] | ≤ 1000
NCc1cccc(C(=O)N2CCN3C(=O)OC(c4ccccc4)(c4ccccc4)C3C2)c1 (centres unmarked) [Example 145, 3-[(Hexahydro-3-oxo-1,1-diphenyl-3H-oxazolo[3,4-a]pyrazin-7(1H)-yl)carbonyl]benzenemethanamine hydrochloride] | ≤ 1000
O=C(Oc1ccc(Cl)cc1)N1CCN2C(=O)OC(c3ccccc3)(c3ccccc3)C2C1 (centres unmarked) [Example 9, (4-Chlorophenyl)tetrahydro-3-oxo-1,1-diphenyl-3H-oxazolo[3,4-a]pyrazine-7(1H)-carboxylate] | ≤ 1000

target: T1, TGR23-2; experiment: Binding inhibitory test: Cy-5 labeled TGR23 ligand binding to CHO cells expressing TGR23-2 (FMAT); conditions: 1 nM Cy-5 labeled TGR23 ligand, 1 hour, read-out: IC50 value, concentration of the compound representing 50% of the binding inhibitory activity

SMILES | IC50 [nM]
O=C(NCCN(C1CC1)S(=O)(=O)c1ccccc1[N+](=O)[O-])N1CCN2C(=O)OC(c3ccccc3)(c3ccccc3)C2C1 (centres unmarked) [Example 171, N-[2-[Cyclopropyl[(2-nitrophenyl)sulfonyl]amino]ethyl]-tetrahydro-3-oxo-1,1-diphenyl-3H-oxazolo[3,4-a]pyrazine-7(1H)-carboxamide] | ≤ 100
O=C(NCCN1CCOCC1)N1CCN2C(=O)OC(c3ccccc3)(c3ccccc3)C2C1 (centres unmarked) [Example 64, Tetrahydro-N-[2-(4-morpholinyl)ethyl]-3-oxo-1,1-diphenyl-3H-oxazolo[3,4-a]pyrazine-7(1H)-carboxamide] | ≤ 100
CN(CCN1CC=CCC1)C(=O)N1CCN2C(=O)OC(c3ccccc3)(c3ccccc3)C2C1 (centres unmarked) [Example 182, N-[2-(3,6-Dihydropyridin-1(2H)-yl)ethyl]-tetrahydro-N-methyl-3-oxo-1,1-diphenyl-3H-oxazolo[3,4-a]pyrazine-7(1H)-carboxamide] | ≤ 100
O=C(C1CCN(CC2CC2)CC1)N1CCN2C(=O)OC(c3ccccc3)(c3ccccc3)C2C1 (centres unmarked) [Example 164, 7-[[1-(Cyclopropylmethyl)piperidin-4-yl]carbonyl]-hexahydro-1,1-diphenyl-3H-oxazolo[3,4-a]pyrazin-3-one] | ≤ 100
CC(C)(CNC(=O)N1CCN2C(=O)OC(c3ccccc3)(c3ccccc3)C2C1)N1CC=CCC1 (centres unmarked) [Example 189, N-[2-(3,6-Dihydropyridin-1(2H)-yl)-2,2-dimethylethyl]-tetrahydro-3-oxo-1,1-diphenyl-3H-oxazolo[3,4-a]pyrazine-7(1H)-carboxamide] | ≤ 100
O=C(Nc1cccc2ncccc12)N1CCN2C(=O)OC(c3ccccc3)(c3ccccc3)C2C1 (centres unmarked) [Example 161, Tetrahydro-3-oxo-1,1-diphenyl-N-(5-quinolinyl)-3H-oxazolo[3,4-a]pyrazine-7(1H)-carboxamide] | ≤ 100
CC(=O)N(CCNC(=O)N1CCN2C(=O)OC(c3ccccc3)(c3ccccc3)C2C1)C1CC1 (centres unmarked) [Example 213, N-[2-[Acetyl(cyclopropyl)amino]ethyl]-tetrahydro-3-oxo-1,1-diphenyl-3H-oxazolo[3,4-a]pyrazine-7(1H)-carboxamide] | ≤ 100
C=CCN(CCNC(=O)N1CCN2C(=O)OC(c3ccccc3)(c3ccccc3)C2C1)C(C)=O (centres unmarked) [Example 210, N-[2-[Acetyl(2-propenyl)amino]ethyl]-tetrahydro-3-oxo-1,1-diphenyl-3H-oxazolo[3,4-a]pyrazine-7(1H)-carboxamide] | ≤ 100
O=C(NCCNCC1CC1)N1CCN2C(=O)OC(c3ccccc3)(c3ccccc3)C2C1 (centres unmarked) [Example 209, N-[2-[(Cyclopropylmethyl)amino]ethyl]-tetrahydro-3-oxo-1,1-diphenyl-3H-oxazolo[3,4-a]pyrazine-7(1H)-carboxamide hydrochloride] | ≤ 100
O=C(Nc1cccnc1)N1CCN2C(=O)OC(c3ccccc3)(c3ccccc3)C2C1 (centres unmarked) [Example 162, Tetrahydro-3-oxo-1,1-diphenyl-N-(3-pyridinyl)-3H-oxazolo[3,4-a]pyrazine-7(1H)-carboxamide] | ≤ 100
O=C(NCCNC1CC1)N1CCN2C(=O)OC(c3cccc(F)c3)(c3cccc(F)c3)C2C1 (centres unmarked) [Example 208, 1,1-Bis(3-fluorophenyl)-N-[2-(cyclopropylamino)ethyl]-tetrahydro-3-oxo-3H-oxazolo[3,4-a]pyrazine-7(1H)-carboxamide hydrochloride] | ≤ 100
C=CCN1CCC(C(=O)N2CCN3C(=O)OC(c4ccccc4)(c4ccccc4)C3C2)CC1 (centres unmarked) [Example 165, Hexahydro-1,1-diphenyl-7-[[1-(2-propenyl)piperidin-4-yl]carbonyl]-3H-oxazolo[3,4-a]pyrazin-3-one hydrochloride] | ≤ 100
O=C(NCCN(CC1CC1)S(=O)(=O)c1ccccc1[N+](=O)[O-])N1CCN2C(=O)OC(c3ccccc3)(c3ccccc3)C2C1 (centres unmarked) [Example 207, N-[2-[(Cyclopropylmethyl)[(2-nitrophenyl)sulfonyl]amino]ethyl]-tetrahydro-3-oxo-1,1-diphenyl-3H-oxazolo[3,4-a]pyrazine-7(1H)-carboxamide] | ≤ 100
C=CCN(CCNC(=O)N1CCN2C(=O)OC(c3ccccc3)(c3ccccc3)C2C1)S(C)(=O)=O (centres unmarked) [Example 211, Tetrahydro-N-[2-[methylsulfonyl(2-propenyl)amino]ethyl]-3-oxo-1,1-diphenyl-3H-oxazolo[3,4-a]pyrazine-7(1H)-carboxamide] | ≤ 100
O=C(C1CCN(CCO)CC1)N1CCN2C(=O)OC(c3ccccc3)(c3ccccc3)C2C1 (centres unmarked) [Example 157, Hexahydro-7-[[1-(2-hydroxyethyl)piperidin-4-yl]carbonyl]-1,1-diphenyl-3H-oxazolo[3,4-a]pyrazin-3-one] | ≤ 100
C=CCN(CC)CCNC(=O)N1CCN2C(=O)OC(c3ccccc3)(c3ccccc3)C2C1 (centres unmarked) [Example 212, N-[2-[Ethyl(2-propenyl)amino]ethyl]-tetrahydro-3-oxo-1,1-diphenyl-3H-oxazolo[3,4-a]pyrazine-7(1H)-carboxamide hydrochloride] | ≤ 100
O=C(NCCN(C1CC1)S(=O)(=O)c1ccccc1[N+](=O)[O-])N1CCN2C(=O)OC(c3cccc(F)c3)(c3cccc(F)c3)C2C1 (centres unmarked) [Example 206, 1,1-Bis(3-fluorophenyl)-N-[2-[cyclopropyl[(2-nitrophenyl)sulfonyl]amino]ethyl]-tetrahydro-3-oxo-3H-oxazolo[3,4-a]pyrazine-7(1H)-carboxamide] | ≤ 100
CC1(O)CCN(CCNC(=O)N2CCN3C(=O)OC(c4ccccc4)(c4ccccc4)C3C2)CC1 (centres unmarked) [Example 204, Tetrahydro-N-[2-(4-hydroxy-4-methyl-1-piperidinyl)ethyl]-3-oxo-1,1-diphenyl-3H-oxazolo[3,4-a]pyrazine-7(1H)-carboxamide] | ≤ 100
CS(=O)(=O)N(CCNC(=O)N1CCN2C(=O)OC(c3ccccc3)(c3ccccc3)C2C1)C1CC1 (centres unmarked) [Example 214, N-[2-[Cyclopropyl(methanesulfonyl)amino]ethyl]-tetrahydro-3-oxo-1,1-diphenyl-3H-oxazolo[3,4-a]pyrazine-7(1H)-carboxamide] | ≤ 100
